This passage reports binding results from paper PMC9367985.

The chains behind the UniProt entries cited, without tags or fusion partners.
UniProt Q96EP0: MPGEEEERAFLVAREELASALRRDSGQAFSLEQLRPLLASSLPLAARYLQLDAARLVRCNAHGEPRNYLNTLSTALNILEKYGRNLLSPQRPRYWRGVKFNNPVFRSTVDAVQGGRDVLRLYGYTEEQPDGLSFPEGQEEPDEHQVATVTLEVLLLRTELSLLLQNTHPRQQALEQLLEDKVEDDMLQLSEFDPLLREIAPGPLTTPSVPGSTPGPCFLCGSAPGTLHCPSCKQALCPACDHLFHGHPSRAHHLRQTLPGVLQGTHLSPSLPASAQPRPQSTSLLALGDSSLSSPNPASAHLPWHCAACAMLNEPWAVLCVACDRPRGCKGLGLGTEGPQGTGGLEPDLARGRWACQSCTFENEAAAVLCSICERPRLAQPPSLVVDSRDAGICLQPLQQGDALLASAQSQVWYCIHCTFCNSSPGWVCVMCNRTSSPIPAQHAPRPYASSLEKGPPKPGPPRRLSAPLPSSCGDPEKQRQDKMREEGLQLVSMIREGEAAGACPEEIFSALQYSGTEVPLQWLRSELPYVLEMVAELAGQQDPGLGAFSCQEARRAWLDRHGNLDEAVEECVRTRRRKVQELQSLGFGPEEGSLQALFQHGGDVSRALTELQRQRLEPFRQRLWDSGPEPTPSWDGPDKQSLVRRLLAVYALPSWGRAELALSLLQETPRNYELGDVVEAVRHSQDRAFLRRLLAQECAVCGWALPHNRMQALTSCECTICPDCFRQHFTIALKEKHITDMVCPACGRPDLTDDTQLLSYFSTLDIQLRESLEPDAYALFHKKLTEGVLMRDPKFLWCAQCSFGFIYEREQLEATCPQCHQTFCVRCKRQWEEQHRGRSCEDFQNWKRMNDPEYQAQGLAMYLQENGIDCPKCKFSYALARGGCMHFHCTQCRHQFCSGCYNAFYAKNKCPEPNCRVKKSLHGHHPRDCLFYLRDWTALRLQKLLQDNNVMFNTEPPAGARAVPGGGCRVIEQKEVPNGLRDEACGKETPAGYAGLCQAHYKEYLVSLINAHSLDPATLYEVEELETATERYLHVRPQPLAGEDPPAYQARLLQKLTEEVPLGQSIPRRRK

Results are given in words; binding and its absence hold for the method and conditions named. Binding seen in cells or lysates may run through a third protein. Some results given as binding are weak or reduced against the parent protein; the word gives no strength.

This test addresses A315T^247-414-GFP (C-terminally GFP-tagged truncated TDP-43, residues 247-414, with the ALS-associated A315T mutation) (human) (UniProt Q13148). The test can be described thus: co-IP; HEK293T cells transfected with LUBAC subunits and GFP or A315T^247-414-GFP; lysis in 50 mM Tris-HCl pH 7.5, 150 mM NaCl, 1% Triton X-100; anti-GFP immunoprecipitates on Protein G agarose at 4 °C; immunoblotting. In general terms: Immunoblotting shows a protein as a band on a membrane.
In the case of “HOIL-1L expressed alone (FLAG-tagged LUBAC subunit) (from UniProt Q9BYM8-1 1-510)”, the binding entry is reported as “no binding”.
Take “HOIP expressed alone (FLAG-tagged LUBAC subunit) (from UniProt Q96EP0 1-1072)”: the binding result is “no binding”.
Regarding “LUBAC (linear ubiquitin chain assembly complex: HOIP, HOIL-1L and SHARPIN co-expressed) (from UniProt Q96EP0 1-1072; Q9BYM8-1 1-510; Q9H0F6 1-387)”, the binding result is given as “binds”.
